Reference: patent US20260265249A1, “PHARMACEUTICALLY ACCEPTABLE SALT AND CRYSTAL FORM OF 1,4-DIHYDRO-1,6-NAPHTHYRIDINE AMIDE COMPOUND AND PREPARATION METHOD THEREFOR” (JIANGSU HENGRUI PHARMACEUTICALS CO., LTD., priority 2023, published 2026)
The match of structure and compound is tentative.

Chains of the proteins cited; added tags and fusions are not shown.
UniProt P08235, whole entry: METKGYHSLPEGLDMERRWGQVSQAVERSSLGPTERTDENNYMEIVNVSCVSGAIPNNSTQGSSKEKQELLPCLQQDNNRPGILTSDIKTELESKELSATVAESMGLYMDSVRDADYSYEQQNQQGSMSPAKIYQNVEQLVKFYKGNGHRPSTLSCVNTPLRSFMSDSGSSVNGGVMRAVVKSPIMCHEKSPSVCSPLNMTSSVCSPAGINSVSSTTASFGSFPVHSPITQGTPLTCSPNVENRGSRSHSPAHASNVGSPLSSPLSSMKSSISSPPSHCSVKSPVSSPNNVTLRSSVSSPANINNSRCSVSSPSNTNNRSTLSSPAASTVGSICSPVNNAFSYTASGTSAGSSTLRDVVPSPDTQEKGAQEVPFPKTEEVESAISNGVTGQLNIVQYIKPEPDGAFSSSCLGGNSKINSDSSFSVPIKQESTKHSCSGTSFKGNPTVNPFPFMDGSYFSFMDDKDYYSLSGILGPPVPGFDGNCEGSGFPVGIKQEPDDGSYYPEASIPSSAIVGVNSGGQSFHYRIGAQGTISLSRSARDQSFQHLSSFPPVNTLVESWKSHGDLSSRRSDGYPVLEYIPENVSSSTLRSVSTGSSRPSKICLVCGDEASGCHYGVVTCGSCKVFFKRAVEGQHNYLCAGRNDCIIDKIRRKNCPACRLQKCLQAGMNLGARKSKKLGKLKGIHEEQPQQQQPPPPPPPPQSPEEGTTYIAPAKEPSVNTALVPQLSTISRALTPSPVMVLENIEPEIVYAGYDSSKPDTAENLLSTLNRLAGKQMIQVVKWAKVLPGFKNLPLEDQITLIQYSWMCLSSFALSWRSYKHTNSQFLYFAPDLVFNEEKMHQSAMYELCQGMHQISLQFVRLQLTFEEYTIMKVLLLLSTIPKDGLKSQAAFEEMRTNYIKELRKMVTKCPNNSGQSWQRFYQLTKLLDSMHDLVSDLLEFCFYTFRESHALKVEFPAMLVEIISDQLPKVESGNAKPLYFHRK

Molecular target: mineralocorticoid receptors (Homo sapiens, UniProt P08235)
Test: In-vitro antagonistic activity against mineralocorticoid receptors (luciferase reporter, transfected HEK293T cells, 1 nM aldosterone)
Conditions: luciferase readout

IC50: 7 nM
SMILES: [2H]C([2H])([2H])Oc1cc(C#N)ccc1[C@@H]1C(C(N)=O)=C(C)Nc2c(C)cnc(OCC)c21
